{"source": "paper PMC7969956", "binders": {"B1": {"name": "caspase-8, Q14790 1-479 (enzyme)", "chain": "MDFSRNLYDIGEQLDSEDLASLKFLSLDYIPQRKQEPIKDALMLFQRLQEKRMLEESNLSFLKELLFRINRLDLLITYLNTRKEEMERELQTPGRAQISAYRVMLYQISEEVSRSELRSFKFLLQEEISKCKLDDDMNLLDIFIEMEKRVILGEGKLDILKRVCAQINKSLLKIINDYEEFSKERSSSLEGSPDEFSNGEELCGVMTISDSPREQDSESQTLDKVYQMKSKPRGYCLIINNHNFAKAREKVPKLHSIRDRNGTHLDAGALTTTFEELHFEIKPHDDCTVEQIYEILKIYQLMDHSNMDCFICCILSHGDKGIIYGTDGQEAPIYELTSQFTGLKCPSLAGKPKVFFIQACQGDNYQKGIPVETDSEEQPYLEMDLSSPQTRYIPDEADFLLGMATVNNCVSYRNPAEGTWYIQSLCQSLRERCPRGDDILTILTEVNYEVSNKDDKKNMGKQMPQPTFTLRKKLVFPSD"}}, "key": {"[1]": {"target": "T1, TRAIL Death Receptor 5 (DR5) (human (endogenous in A549)), O14763", "assay": "co-IP; anti-DR5 immunoprecipitation from lysates of A549 cells transiently overexpressing myc-Hsp70, treated with vehicle (DMSO) or with 50 uM apigenin for 18 h then 100 ng/ml TRAIL for 6 h; blots as in Fig. 5a", "details": "remark: other sources report otherwise"}, "[2]": {"target": "T1, TRAIL Death Receptor 5 (DR5) (human …)", "assay": "co-IP; anti-DR5 immunoprecipitation from lysates of A549 cells pretreated with 50 uM apigenin for 18 h, then 25 or 100 ng/ml TRAIL or DMSO for 6 h; NP-40 buffer with 20 mM Tris-Cl, 150 mM NaCl, 1% NP-40, 10% glycerol; blots with anti-Hsp70, anti-caspase-8, anti-FADD and anti-DR5", "details": "remark: other sources report otherwise"}}, "note": "These are yes or no findings as the source states them, for the method shown. Binding seen in cells or lysates may run through a third protein. Some binding calls cover weakened binding; strength is not graded here."}
{"binder": "B1", "values": [{"measurement": "binding", "setting": "[1]", "value": "binds"}, {"measurement": "binding", "setting": "[2]", "value": "binds"}]}
